In article PMC10724061:
No constants are given. Whether binding was seen depends on the method and setting. In cells and extracts the contact can be indirect. Some entries that bind do so weakly or less than the wild type.

The chains behind the UniProt entries cited, without tags or fusion partners.
UniProt Q96524: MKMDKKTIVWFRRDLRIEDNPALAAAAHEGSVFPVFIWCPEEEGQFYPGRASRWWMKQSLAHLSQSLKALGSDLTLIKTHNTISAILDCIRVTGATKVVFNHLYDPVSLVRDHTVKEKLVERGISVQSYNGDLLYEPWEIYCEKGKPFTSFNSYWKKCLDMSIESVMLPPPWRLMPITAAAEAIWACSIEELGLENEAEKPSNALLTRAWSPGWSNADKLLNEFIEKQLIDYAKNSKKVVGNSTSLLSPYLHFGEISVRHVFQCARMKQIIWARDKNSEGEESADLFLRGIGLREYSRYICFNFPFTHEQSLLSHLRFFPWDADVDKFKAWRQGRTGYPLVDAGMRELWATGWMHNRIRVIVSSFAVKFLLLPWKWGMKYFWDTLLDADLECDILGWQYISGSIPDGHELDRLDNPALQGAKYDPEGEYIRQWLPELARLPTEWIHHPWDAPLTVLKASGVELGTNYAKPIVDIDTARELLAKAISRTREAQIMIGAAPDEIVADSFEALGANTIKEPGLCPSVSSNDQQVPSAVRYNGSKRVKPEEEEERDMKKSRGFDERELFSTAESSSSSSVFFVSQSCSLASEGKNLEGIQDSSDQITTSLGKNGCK
UniProt O82486: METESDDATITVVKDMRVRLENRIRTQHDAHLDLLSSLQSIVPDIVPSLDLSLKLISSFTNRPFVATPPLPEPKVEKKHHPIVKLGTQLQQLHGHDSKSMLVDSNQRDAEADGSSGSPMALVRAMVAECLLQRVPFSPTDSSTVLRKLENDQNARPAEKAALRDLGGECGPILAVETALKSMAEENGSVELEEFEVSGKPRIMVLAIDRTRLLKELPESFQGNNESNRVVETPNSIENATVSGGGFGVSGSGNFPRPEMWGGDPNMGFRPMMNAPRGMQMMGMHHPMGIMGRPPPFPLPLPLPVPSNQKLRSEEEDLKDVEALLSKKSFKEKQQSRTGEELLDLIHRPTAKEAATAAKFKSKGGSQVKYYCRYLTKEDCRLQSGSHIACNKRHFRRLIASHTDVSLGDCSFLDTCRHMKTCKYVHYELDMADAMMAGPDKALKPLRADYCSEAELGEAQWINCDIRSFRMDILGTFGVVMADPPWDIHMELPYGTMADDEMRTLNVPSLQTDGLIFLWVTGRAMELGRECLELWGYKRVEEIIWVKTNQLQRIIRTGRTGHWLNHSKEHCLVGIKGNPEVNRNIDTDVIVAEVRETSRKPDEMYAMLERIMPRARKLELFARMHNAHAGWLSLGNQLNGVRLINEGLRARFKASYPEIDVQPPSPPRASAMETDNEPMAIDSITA

Target: CRY2–nYFP (Arabidopsis) (UniProt Q96524)
Test: split reporter; BiFC (nYFP/cYFP) in Arabidopsis protoplasts, blue light (2% of the 488 nm laser power) for the indicated time

binding: binds
Substance: MTA–cYFP (from UniProt O82486 1-685)
